PubChem BioAssay AID1259326, Drosophila RNAi Screening Center | 2017

Assay: 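Autophagy genes whose loss alters cell survival in toxic zinc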
Cell system: Drosophila S2R+ cells
Reagents: long dsRNA against Drosophila genes
Duration: about 5 days (4 days of RNAi, then 1 day of zinc)
Treatment: zinc chloride added to 15 mM final for one day
Detection: 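Cellular ATP measured by luciferase light as a viable-cell proxy, after 4 days of RNAi and 1 day in 15 mM zinc chloride; replicate z-scores averaged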
Reading the numbers: averaged z-score: higher = more ATP than other wells, i.e. more surviving cells, after zinc; ATP luminescence: higher = more ATP, i.e. more surviving cells
Call rule: 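Called active when the averaged z-score lies outside -1.5 to 1.5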
The whole screen tested 573 reagents; below is a part drawn at random. 39 of all reagents (6.8%) count as active. 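All actives have raised ATP, meaning more surviving cells; in these data active calls sit at averaged z-scores near 1.5 or above.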 The raw values are shown without normalisation. The numbers tell different reagents against one gene apart. No sequences are given here. The record does not give: the amount of reagent.

The opening 2 records, to show the layout:
gene | reagent | averaged z-score | ATP luminescence, replicate 1 | ATP luminescence, replicate 2 | activity call
CG18324 | 1 | -0.439 | 80167 | 63684 | inactive
CG18324 | 2 | 0.00759 | 80218 | 75827 | inactive

Main list, from the start:
gene | reagent | averaged z-score | ATP luminescence, replicate 1 | ATP luminescence, replicate 2 | activity call
CG18324 | 1 | -0.439 | 80167 | 63684 | inactive
CG18324 | 2 | 0.00759 | 80218 | 75827 | inactive
CG18324 | 3 | -0.103 | 69327 | 78143 | inactive
CG8036 | 1 | -0.289 | 73803 | 1.01e5 | inactive
CG8036 | 2 | -0.347 | 61815 | 74163 | inactive
Abcd3 (ATP binding cassette subfamily D member 3) | 1 | 0.15 | 1.02e5 | 73426 | inactive
Abcd3 (ATP binding cassette subfamily D member 3) | 2 | 3.25 | 1.64e5 | 1.05e5 | active
Abcd3 (ATP binding cassette subfamily D member 3) | 3 | -0.284 | 67082 | 69035 | inactive
CG31251 | 1 | 0.0893 | 80647 | 97613 | inactive
CG31251 | 2 | 0.0436 | 72279 | 78692 | inactive
Rpn1 (Regulatory particle non-ATPase 1) | 1 | 0.639 | 96223 | 1.01e5 | inactive
Rpn1 (Regulatory particle non-ATPase 1) | 2 | -0.296 | 69944 | 68761 | inactive
Rpn1 (Regulatory particle non-ATPase 1) | 3 | 0.719 | 1.10e5 | 75776 | inactive
Mtpalpha (Mitochondrial trifunctional protein alpha subunit) | 1 | 0.875 | 1.12e5 | 90442 | inactive
Mtpalpha (Mitochondrial trifunctional protein alpha subunit) | 2 | -0.295 | 76119 | 78400 | inactive
Mtpalpha (Mitochondrial trifunctional protein alpha subunit) | 3 | 0.151 | 73374 | 82517 | inactive
Atg8a (Autophagy-related 8a) | 1 | 1.55 | 98686 | 1.01e5 | active
Atg8a (Autophagy-related 8a) | 2 | 0.605 | 1.02e5 | 66857 | inactive
Atg8a (Autophagy-related 8a) | 3 | 2.97 | 1.77e5 | 98711 | active
